Values quoted from earlier work, collected in patent US20220298038A1, “A METHOD FOR DISRUPTING BIOFILMS IN WASTEWATER SYSTEMS” (GRENOF PTY LTD, priority 2019, published 2022).
At least one compound was matched to its structure with a doubt left.

Conditions: cited from earlier work

In the case of `O=COO` [zeroane], the “O—O Bond Dissociation Energy” value is listed as 199.2 ± 8.4 kJ/mol.
